Laboratory results: PubChem BioAssay AID624359 (Broad Institute, 2012)
The shares of active, inactive and inconclusive entries below differ from those in the screen. The source made the active and inactive calls.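 How the source made its calls: active means fitted curve reaches 35% inhibition at a concentration up to twice the top valid dose; inconclusive means no clear call, values can overlap the other calls; inactive means the rest, including signal moving the opposite way.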

assay: inhibitors of LMP1-driven NF-kB reporter, dose response, cell-based, EBV LMP1, luciferase, dry powder (AID 624359); details: HEK293 LMP1 TES2 NF-kB luciferase reporter, 16 h; at 26 µM (top of the series) unless noted

Compound	activity change, negative = inhibition
C[C@H]1CCCCO[C@@H](CN(C)CC2CCCCC2)[C@@H](C)CN([C@@H](C)CO)C(=O)c2cc(NC(=O)C3CCCCC3)ccc2O1	inconclusive: -28.2%
C=C1C[C@]23C[C@@]1(O)CC[C@@H]2c1cccc(C)c1[C@@H]3C(=O)O	inconclusive: -73.9%
C/C(=N\NC(=S)N1CC2CCC(CC2)C1)c1cccc(C)n1	inconclusive: -117%
C[C@@H]1CN([C@@H](C)CO)C(=O)c2cc(NC(=O)Nc3ccc(C(F)(F)F)cc3)ccc2O[C@@H](C)CCCCO[C@@H]1CN(C)CC1CCCCC1	inconclusive: 10.9%
Oc1cccc(C(Nc2nccs2)c2ccc3cccnc3c2O)c1 (stereo unspecified)	inactive: 23.7%
CNC[C@@H]1Oc2ccc(NS(=O)(=O)c3cn(C)cn3)cc2CC(=O)N([C@H](C)CO)C[C@@H]1C	inactive: 7.33%
C[C@@H]1CN([C@@H](C)CO)C(=O)c2cccc(NC(=O)Nc3cccc4ccccc34)c2O[C@H]1CN(C)C(=O)Nc1ccc(C(F)(F)F)cc1	inactive: 26.9%
C[C@@H]1CCCCO[C@H](CN(C)C(=O)NC2CCCCC2)[C@H](C)CN([C@@H](C)CO)C(=O)c2cc(NC(=O)C3CCCCC3)ccc2O1	inconclusive: -58%
C/C(=N\NC(=S)Nc1cccc(Cl)c1)c1ccccn1	inconclusive: -78.4%
Cc1cc(NC(=O)c2ccc3c(c2)OCCO3)no1	inconclusive: -25.7%
COc1ccc(NC(=O)c2ccc(OC(C)C(=O)O)cc2)cc1Cl (stereo unspecified)	inconclusive: -29.5% [at 28.5 µM]

Copied from the list:
COc1ccc(NC(=O)c2ccc(OC(C)C(=O)O)cc2)cc1Cl (stereo unspecified) – activity change, negative = inhibition: inconclusive: -29.5% [at 28.5 µM]
Oc1cccc(C(Nc2nccs2)c2ccc3cccnc3c2O)c1 (stereo unspecified) – activity change, negative = inhibition: inactive: 23.7%
